Out of some 190,000 compounds screened, about 110 (0.058%) were called active. The inconclusive results got no clear call from the source; some entries with a clear call stand among them for comparison.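 The calls were made as follows: active = fluorescent GTP binding to Rab7 beads changed by at least 20 points from the 100% baseline, either direction, mostly lower; inconclusive = compound itself probably fluorescent, or too few beads counted; inactive = the rest.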
These molecules were tested on Rab7 GTPase wild type (dog), Bodipy-FL-GTP binding (assay: modulators of GTP binding to Rab7, primary screen, biochemical, wildtype, multiplex bead flow cytometry (AID 758;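 also: median green fluorescence of bound Bodipy-FL-GTP per Rab7 bead population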)). Details: GST-Rab7 beads, fluorescent GTP binding, at 10 µM, actives lie on both sides, untreated = 100%, excess cold GTP = 0%.

SMILES	GTP binding activity (percent of control)
COc1ccc(Cl)cc1NC(=O)Cn1c(NCCO)nc2ccccc21	inactive: 101%
CC(C)N(C(=O)CSc1nnc(CSc2ncccn2)n1C)C(C)C	inconclusive: 99%
CCOC(=O)c1ccc2c(c1)[n+](CC)c(C)n2-c1ccccc1	inconclusive: 97%
O=c1cc(-c2ccc(O)c(-c3c(O)cc(O)c4c(=O)cc(-c5ccc(O)cc5)oc34)c2)oc2cc(O)cc(O)c12	inconclusive: 94%
CCC(C)(C)n1nnnc1CN1CCc2ccccc21	inconclusive: 92%
O=C(COc1ccccc1)Nc1ccc(N2CCN(C(=O)c3cccs3)CC2)cc1	inconclusive: 95%
Cc1cccc(C(=O)NC(=S)NNC(=O)c2ccc(Cl)cc2)c1	inconclusive: 97%
Cc1ccc(C(=O)CC(C(=O)O)P(=O)(c2ccccc2)c2ccccc2)cc1 (configuration not stated)	inconclusive: 92%
Cc1ccc(NC(=O)CSc2nnc(-c3ccncc3)o2)cc1	inconclusive: 103%
CC(C)OC(=O)CSc1n[nH]c(-c2cccnc2)n1	inconclusive: 105%
O=C(O)C1C2C=CC(O2)C1C(=O)Nc1ccccc1C(F)(F)F (configuration not stated)	inconclusive: 105%
O=C1Nc2cc(Cl)c(Cl)cc2N(O)N1c1ccccc1	inconclusive: 93%
Cc1ccc2nc(Cl)c(CNCc3ccccc3)cc2c1	inactive: 103%
CCOC(=O)C1(Cc2ccccc2C(F)(F)F)CCN(CC(O)CO)CC1 (configuration not stated)	inactive: 99%
Cc1[nH]n(-c2nc(-c3ccc(Cl)cc3)cs2)c(=O)c1N=Nc1ccc(O)cc1	inactive: 92%
CC1CCCC(NC(=O)COC(=O)Cc2ccsc2)C1C (configuration not stated)	inconclusive: 97%
CCC(CC)C(=O)NCCN1CCN(C(=O)C(CC)CC)CC1	inconclusive: 105%
Cc1nn(C)cc1CN1CCCC(C(=O)c2ccc(-c3ccccc3)cc2)C1 (configuration not stated)	inactive: 99%
COc1cc(/C=C(\C#N)C(=O)NC2CCCCC2)ccc1OCc1ccc(C(=O)O)cc1	inactive: 103%
CCN1CCN(C(=O)c2c(-c3c(F)cccc3Cl)noc2C)CC1	inconclusive: 105%
Cc1ccccc1-n1c(SCc2c(C)noc2C)nnc1-c1cccnc1	inactive: 111%
CC(=O)Nc1cccc(NC(=O)c2ccc([N+](=O)[O-])cc2Cl)c1	inconclusive: 98%
C=CCOc1ccc(C2CC(C)=NN2c2ccccc2)cc1 (configuration not stated)	inactive: 102%

Sorted by count of non-hydrogen atoms (largest number first): some entries from above
SMILES	GTP binding activity (percent of control)
Cc1[nH]n(-c2nc(-c3ccc(Cl)cc3)cs2)c(=O)c1N=Nc1ccc(O)cc1	inactive: 92%
CC(C)N(C(=O)CSc1nnc(CSc2ncccn2)n1C)C(C)C	inconclusive: 99%
Cc1ccc(NC(=O)CSc2nnc(-c3ccncc3)o2)cc1	inconclusive: 103%

Next entries.

SMILES	GTP binding activity (percent of control)
O=c1c2c(nc3nc(NCc4cccc5ccccc45)[nH]n13)CCC2	inactive: 98%
CCCn1c(N)c(C(=O)NS(=O)(=O)c2ccc(C)cc2)c(=O)n(C)c1=O	inconclusive: 93%
COCCn1c(SCc2nc3scc(-c4ccc(Cl)cc4)c3c(=O)[nH]2)nnc1-c1cccc(C)c1	inconclusive: 93%
COc1ccc(/C=N/NC(=O)c2c([N+](=O)[O-])c(C)nn2C)cc1	inconclusive: 102%
CCOc1ccc(C(=O)Nc2ccc(N3CCN(S(C)(=O)=O)CC3)cc2)cc1[N+](=O)[O-]	inconclusive: 95%
Nc1c(S(=O)(=O)c2cccc(Cl)c2)c2nc3ccccc3nc2n1/N=C/c1ccc(O)c(O)c1	inconclusive: 79%
CC(=O)c1sc(NC(=O)c2ccc(C(C)(C)C)cc2)nc1C	inactive: 97%
O=C(COc1cccnc1[N+](=O)[O-])NC1CCS(=O)(=O)C1 (configuration not stated)	inactive: 97%
Cc1ccc(OCC(=O)Nc2ccccc2[N+](=O)[O-])c(Br)c1	inactive: 108%
CC(C)CCN1CN(S(=O)(=O)c2cccs2)c2nc3ccccc3nc21	inconclusive: 106%
O=C(CNC(=S)NC(=O)C1CCCCC1)c1ccccc1	inconclusive: 100%
CN(CC(=O)NCCc1ccccc1)S(=O)(=O)c1ccccc1	inactive: 94%
C[N+]1(CC(O)COCC2COc3ccccc3O2)CCOCC1 (configuration not stated)	inactive: 106%
CN1CCS/C1=C/C=C1/SC(=S)N(Cc2ccccc2)C1=O	inactive: 100%
CCOC(=O)c1c(C)[nH]c(-c2csc(C)n2)c1C	inconclusive: 95%
Clc1nc2sccn2c1/C=N/n1cnc2ccccc21	inconclusive: 91%
O=C(O)C(Cc1c[nH]c2ccccc12)NS(=O)(=O)c1ccc2ccccc2c1 (configuration not stated)	inconclusive: 86%
O=C(NCC(c1cccnc1)N1CCOCC1)c1ccco1 (configuration not stated)	inconclusive: 95%
COc1cccc(OCc2nnc(SCC(=O)NCc3ccco3)n2C)c1	inconclusive: 107%
COC(=O)CSc1ccc(C#N)c(SCC(=O)OC)c1	inconclusive: 104%
Cc1cccc(-n2c(C)cc(/C=N\NC(=O)c3cccs3)c2C)c1	inconclusive: 99%
COC(=O)/C=C/C(=O)Nc1cccnc1	inactive: 96%
O=C(O)C1CCCN1C(=O)OCc1ccccc1 (configuration not stated)	active: 120% [activator]

SMILES	GTP binding activity (percent of control)
C(=N\N1CCN(Cc2ccccc2)CC1)/c1cccs1	inconclusive: 96%
CN(C)c1nc(=S)nc(NCc2ccccc2)[nH]1	inconclusive: 110%
Cc1ccc2nc3ccc(N4CCCC4)nn3c(=O)c2c1	inactive: 103%
COc1cccc(=O)c2c(C)n(CC(=O)c3ccccc3)c(C)c12	inconclusive: 96%
Cc1cccc(OCC(O)CN2C(C)(C)CC(O)CC2(C)C)c1 (configuration not stated)	inconclusive: 105%
O=C1CNC(=O)/C1=C/c1ccc(O)cc1	inconclusive: 103%
S=C(NCc1cccs1)Nc1ccc(Cl)cc1	inconclusive: 91%
CCOC(=O)N1CCN(C(=O)CC(=O)Nc2ccc3nc4n(c(=O)c3c2)CCCCC4)CC1	inactive: 93%
COc1ccc(S(=O)(=O)CCC(=O)NCCc2ccc(C)cc2)cc1	inconclusive: 100%
COc1ccc(Nc2nc(N)nc(CSC(=S)N3CCOCC3)n2)cc1	inconclusive: 100%
N#Cc1cc([N+](=O)[O-])ccc1NC(=O)COC(=O)CCC1CCCCC1	inactive: 101%
CC(=O)Cc1nsc(NC(=O)c2ccco2)n1	inconclusive: 105%
COc1cccc(C(=O)Nc2cccc(C(=O)NC3=NN(c4c(Cl)cc(Cl)cc4Cl)C(=O)C3)c2)c1	inconclusive: 93%
CN(c1ccc(OCC(=O)OCC(=O)NCc2ccco2)cc1)S(=O)(=O)c1ccc2ccccc2c1	inactive: 108%
Cc1ccccc1C(=O)NC1CCN(Cc2nnnn2Cc2ccccc2)CC1	inconclusive: 102%
N/C(=N\OC(=O)C1CCCCC1)c1cccnc1	inconclusive: 103%
CCN1/C(=C/C=C/c2oc3ccc(-c4ccccc4)cc3[n+]2CC)Oc2ccc(-c3ccccc3)cc21	inconclusive: 864%
O=C1OC(Oc2ccccc2)(c2ccccc2)c2ccccc21 (configuration not stated)	inconclusive: 109%
Cc1ccc(/C=N/NC(=O)C2CCN(Cc3ccc(F)cc3Cl)CC2)o1	active: 78%
O=C(/C=C/c1ccc([N+](=O)[O-])cc1)NC1CC2CCC1C2 (configuration not stated)	inconclusive: 94%
Cc1cc(C)c(NC(=O)Cn2cc3c(n2)CCCC3)c(C)c1	inconclusive: 100%
Cc1cc(C)nc(NNC(=O)NC2CCCCC2)n1	inconclusive: 92%
COc1ccc(N(CC(=O)Nc2ccccc2C(=O)O)S(=O)(=O)c2ccc(C)c([N+](=O)[O-])c2)cc1	inconclusive: 93%

SMILES	GTP binding activity (percent of control)
C/C(=N\Nc1cc(C)nc(-c2ccccc2)n1)c1cccc([N+](=O)[O-])c1	inactive: 89%
O=C(Oc1ccc2c(c1)O/C(=C\c1ccncc1)C2=O)c1ccccc1	inconclusive: 94%
O=C(Cc1coc(-c2ccc(F)cc2)n1)NCc1ccccc1	inconclusive: 106%
Cc1nn(Cc2ccccc2)c(Cl)c1C(=O)NCc1ccco1	inactive: 98%
COc1ccc(/C=C2\SC(=S)N(CCCC(=O)NNC(=O)c3ccccc3O)C2=O)cc1	inactive: 92%
O=C(CSc1nc2scc(-c3ccccc3)c2c(=O)[nH]1)NC1CCCCC1	inactive: 99%
CC(=O)N1C(=O)/C(=C2\SC(=S)N(NC(=O)c3ccc(O)cc3)C2=O)c2ccccc21	inconclusive: 82%
COc1ccc(CCNC(=O)C2CCCN2C(=O)NC2CCCCC2)cc1OC (configuration not stated)	inactive: 99%
COc1ccc(C(=O)c2ccc([N+](=O)[O-])cc2Cl)cc1	inconclusive: 91%
Cc1ccc(C)c(-n2c3nc(=O)[nH]c(=O)c-3cc3cc([N+](=O)[O-])ccc32)c1	inconclusive: 91%
Cc1ccccc1NC(=O)C1CCCN1S(=O)(=O)c1cccc2cccnc12 (configuration not stated)	inactive: 109%
CC(OC(=O)c1ccccc1OCc1ccc(Cl)cc1)C(N)=O (configuration not stated)	inactive: 102%
COc1cccc(NC(=S)NCc2ccc3c(c2)cc(C)n3C)c1	inconclusive: 96%
N#CCCn1c(SCC(=O)Nc2ccc(N3CCOCC3)cc2)nc2ccccc21	inactive: 97%
CCOc1cc(/C=N/Nc2nc(-c3cccc(S(=O)(=O)N4CCCC4)c3)cs2)ccc1O	inconclusive: 92%
CCN(C(=O)Cc1ccc(Br)cc1)C1CCCCC1	inconclusive: 91%
CCC(=O)NCCCCCCNC(=O)CC	inconclusive: 102%
Nc1nonc1C(=O)N/N=C/c1ccc(-c2ccc(Cl)c(C(=O)O)c2)o1	inconclusive: 93%
CC1CC(C)CN(C(=O)COc2ccc([N+](=O)[O-])cc2Cl)C1 (configuration not stated)	inactive: 103%
CN(C)c1ccc(/C=C2\SC(=S)N(Nc3ncc(C(F)(F)F)cc3Cl)C2=O)cc1	inconclusive: 148%
COc1ccc(-n2nc(C(=O)Nc3cc(OC)c(OC)c(OC)c3)c3ccccc3c2=O)c(OC)c1	inconclusive: 98%
Cc1ccc(/C=N/N(C)C2=NS(=O)(=O)c3ccccc32)o1	inactive: 90%
CCCC1=NN(C(=O)Cc2ccc([N+](=O)[O-])cc2)C(O)(C(F)(F)F)C1 (configuration not stated)	inactive: 96%

Source: PubChem BioAssay AID758 (NMMLSC, 2007)
